{"source": "patent US20220089600A1", "about": "“TGFß INHIBITOR AND PRODRUGS” (FUNDACIÓ INSTITUT DE RECERCA BIOMÈDICA (IRB BARCELONA), priority 2018, published 2022)", "tested_on": "TGFβ signaling (12×CAGA-Firefly_Luc reporter) in HEK293T cells", "assay": "In vitro CAGA-Luciferase reporter assay", "assay_type": "cell-based, human", "description": "HEK293T cells were purchased from the ATCC and cultured in DMEM supplemented with L-glutamine and 10% fetal bovine serum (Life Technologies) at 37° C. and 5% CO2. The cells were seeded in 24-well plates and transfected with plasmids encoding 12×CAGA-Firefly_Luc and Tk-Renilla_Luc (75 and 10 ng per well, respectively), using polyethylenimine (Polysciences) as transfection reagent. After 7h, medium was replaced for starvation medium (DMEM+0.05% FBS). […] Luciferase activity was measured 16h later using the Dual Luciferase Assay kit (Promega): media were aspirated, and cells were lysed in 200 μl passive lysis buffer (kit) for 20 minutes. Bioluminescence was measured in a Berthold Lumat LB6507 luminometer (18 μl reagents, 10 seconds measurements). […]\nWhen adding the luciferase substrate (luciferin) to the cell lysates, emission of light implies an active TGF-β pathway due to the production of pSMAD2/3-SMAD4, whereas no or little observed light would imply inhibition of the pathway by the inhibitor. Finally, the results could be normalized by the addition of Stop & Glo® which quenches the firefly luciferase enzyme/substrate and activates the Renilla transfection control, producing light which was again measured by the luminometer and used to normalize the data.", "note": "Some of these results come from one statement about several compounds together."}
{"smiles": "Cc1cccc(-c2nn3c(c2-c2ccnc4ccc(OC(=O)N5CCC(N6CCCCC6)CC5)cc24)CCC3)n1", "note": "[prodrug of formula IV, 4-(2-(6-methylpyridin-2-yl)-5,6-dihydro-4H-pyrrolo[1,2-b]pyrazol-3-yl)quinolin-6-yl [1,4′-bipiperidine]-1′-carboxylate]", "values": [{"measurement": "times lower TGFβ signaling inhibitory capacity compared to compound of formula I", "setting": "FIG. 1", "result": "up to 10 times"}, {"measurement": "times lower TGFβ signaling inhibitory capacity compared to compound of formula I", "setting": "FIG. 1, listed as compound of formula IV", "result": "up to 8 times"}]}
